Drawing on publication PMC6997366, this text covers binding for two molecules.

Chains of the proteins cited; added tags and fusions are not shown.
UniProt Q9Y4K3: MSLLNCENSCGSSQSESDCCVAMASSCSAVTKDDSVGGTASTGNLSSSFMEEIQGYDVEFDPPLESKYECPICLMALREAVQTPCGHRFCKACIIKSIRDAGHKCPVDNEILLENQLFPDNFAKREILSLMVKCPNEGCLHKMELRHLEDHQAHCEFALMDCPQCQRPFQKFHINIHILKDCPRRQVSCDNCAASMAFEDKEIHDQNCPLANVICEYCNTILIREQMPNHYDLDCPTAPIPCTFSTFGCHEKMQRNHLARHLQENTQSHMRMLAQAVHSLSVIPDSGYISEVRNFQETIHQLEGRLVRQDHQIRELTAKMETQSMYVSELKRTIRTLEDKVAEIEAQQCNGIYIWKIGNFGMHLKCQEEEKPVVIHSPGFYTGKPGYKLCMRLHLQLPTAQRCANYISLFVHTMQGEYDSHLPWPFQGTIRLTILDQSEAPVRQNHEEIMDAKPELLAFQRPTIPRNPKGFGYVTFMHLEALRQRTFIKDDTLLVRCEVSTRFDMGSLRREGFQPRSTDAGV

The target in the test is T1, A20 (Tumor necrosis factor alpha-induced protein 3), expressed from pcDNA3-A20 (UniProt P21580).
T1 sequence: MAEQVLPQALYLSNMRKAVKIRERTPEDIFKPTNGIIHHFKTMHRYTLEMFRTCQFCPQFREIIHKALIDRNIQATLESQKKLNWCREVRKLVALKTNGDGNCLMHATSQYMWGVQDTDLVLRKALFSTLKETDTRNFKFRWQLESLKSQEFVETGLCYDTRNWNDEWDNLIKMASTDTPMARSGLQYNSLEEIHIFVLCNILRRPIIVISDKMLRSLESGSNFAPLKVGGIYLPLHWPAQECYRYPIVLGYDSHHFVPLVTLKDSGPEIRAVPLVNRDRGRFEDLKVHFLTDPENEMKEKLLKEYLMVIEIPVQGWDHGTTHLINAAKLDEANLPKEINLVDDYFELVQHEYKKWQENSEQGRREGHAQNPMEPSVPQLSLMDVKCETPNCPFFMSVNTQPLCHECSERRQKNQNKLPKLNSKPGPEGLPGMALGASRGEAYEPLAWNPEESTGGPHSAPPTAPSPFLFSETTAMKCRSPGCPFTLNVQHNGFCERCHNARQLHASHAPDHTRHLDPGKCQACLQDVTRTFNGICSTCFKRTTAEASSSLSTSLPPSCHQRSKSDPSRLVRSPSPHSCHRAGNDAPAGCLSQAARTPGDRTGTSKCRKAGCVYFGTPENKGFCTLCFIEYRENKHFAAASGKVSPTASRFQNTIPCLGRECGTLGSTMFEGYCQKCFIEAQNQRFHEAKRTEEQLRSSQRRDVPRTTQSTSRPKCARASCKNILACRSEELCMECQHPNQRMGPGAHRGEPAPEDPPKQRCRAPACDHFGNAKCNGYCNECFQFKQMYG
The experiment in a line: affinity purification with mass spectrometry; Huh7 cells transduced with pcDNA3-A20 or empty vector, MG132 (10 uM) for 8 h; A20 pulled down by IP with anti-A20 antibody and protein G agarose at 4 °C; LC-MS/MS.

Results are given in words; binding and its absence hold for the method and conditions named. In cells and extracts the contact can be indirect. A yes stands for co-enrichment or nearness to the bait. Other partners may have been found.

For TRAF6 (from UniProt Q9Y4K3 1-522), the binding entry is reported as “binds”.

B1: phosphofructokinase, liver type (PFKL), endogenous (enzyme, UniProt P17858 1-780)
chain: MAAVDLEKLRASGAGKAIGVLTSGGDAQGMNAAVRAVTRMGIYVGAKVFLIYEGYEGLVEGGENIKQANWLSVSNIIQLGGTIIGSARCKAFTTREGRRAAAYNLVQHGITNLCVIGGDGSLTGANIFRSEWGSLLEELVAEGKISETTARTYSHLNIAGLVGSIDNDFCGTDMTIGTDSALHRIMEVIDAITTTAQSHQRTFVLEVMGRHCGYLALVSALASGADWLFIPEAPPEDGWENFMCERLGETRSRGSRLNIIIIAEGAIDRNGKPISSSYVKDLVVQRLGFDTRVTVLGHVQRGGTPSAFDRILSSKMGMEAVMALLEATPDTPACVVTLSGNQSVRLPLMECVQMTKEVQKAMDDKRFDEATQLRGGSFENNWNIYKLLAHQKPPKEKSNFSLAILNVGAPAAGMNAAVRSAVRTGISHGHTVYVVHDGFEGLAKGQVQEVGWHDVAGWLGRGGSMLGTKRTLPKGQLESIVENIRIYGIHALLVVGGFEAYEGVLQLVEARGRYEELCIVMCVIPATISNNVPGTDFSLGSDTAVNAAMESCDRIKQSASGTKRRVFIVETMGGYCGYLATVTGIAVGADAAYVFEDPFNIHDLKVNVEHMTEKMKTDIQRGLVLRNEKCHDYYTTEFLYNLYSSEGKGVFDCRTNVLGHLQQGGAPTPFDRNYGTKLGVKAMLWLSEKLREVYRKGRVFANAPDSACVIGLKKKAVAFSPVTELKKDTDFEHRMPREQWWLSLRLMLKMLAQYRISMAAYVSGELEHVTRRTLSMDKGF
Consider B1, for which the binding result is reported as “binds”.
